Results as given in patent US11833144B2, “Treating autoimmune disease” (Mayo Foundation for Medical Education and Research, priority 2020, dated 2023).
At least one structure is not confirmed: it was looked up by name or label, or the drawing left a doubt.

Tests used:
[1] = test system: Acaca, Fasn, Scd1, Scd2 expression; assay: RT-PCR of FA biosynthesis genes in activated murine B cells with rapamycin; assay type: cell-based, mouse; settings: rapamycin 10 nM; LPS/IL-4, 8 and 24 hours
[2] = test system: murine B cells; assay: Murine B cell proliferation (CellTrace Violet, cell number) and class switch to IgG1 in vitro; assay type: cell-based, mouse; settings: 3-MA 1 mM; wortmannin 1 μM
Protocol: Mouse B cells were isolated from pooled single cell suspensions of spleen and peripheral lymph nodes using CD19 Microbeads (Miltenyi) or Mouse B cell Isolation Kit (Stemcell Technologies). B cells were stimulated with LPS (10 μg/mL; Sigma-Aldrich) and recombinant IL-4 cytokine (10 ng/mL; Tonbo Bioscience) with or without SCD inhibitor SSI-4, and proliferation was measured by dilution of CellTrace Violet proliferation dye (Thermo Fisher Scientific). B cells were also stimulated with anti-IgM (10 μg/mL; Jackson ImmunoResearch), anti-CD40 (10 μg/mL; BioXcell) and IL-4 (10 ng/mL; Tonbo Bioscience), or TLR ligand CpG (2.5 μM; IDT), recombinant IL-4 and IL-5 (10 ng/mL; Tonbo Bioscience) cytokines. To test the function of monounsaturated and saturated fatty acids, B cells were activated in presence of exogenous fatty acid-BSA conjugate. […] Human B cell proliferation was measured by ^3[H]-thymidine incorporation (1 μCi/mL) (American Radiolabeled Chemicals). […] Antigen specific GC response was detected with tetramer NP-phycoerythrin conjugated with PE (Biosearch Technologies). […] Cell viability was assessed using the Fixable Dye Ghost 510 (Tonbo Bioscience) or Annexin V cell apoptosis kit with 7-AAD (ThermoFisher) following the manufacturer's protocol. […] Mitochondrial potential was measured by staining with 20 nM TMRM (ThermoFisher) following manufacturer's instructions. […]

Row | Compound | increased expression of FA biosynthesis genes upon B cell activation [1] | rescue of B cell proliferation and class switch to IgG1 in the presence of SSI-4 [2]
1 | CO[C@H]1C[C@@H]2CC[C@@H](C)[C@@](O)(O2)C(=O)C(=O)N2CCCC[C@H]2C(=O)O[C@H]([C@H](C)C[C@@H]2CC[C@@H](O)[C@H](OC)C2)CC(=O)[C@H](C)/C=C(\C)[C@@H](O)[C@@H](OC)C(=O)[C@H](C)C[C@H](C)/C=C/C=C/C=C/1C [rapamycin] | blocked their increased expression | –
2 | COC[C@H]1OC(=O)c2coc3c2[C@@]1(C)C1=C(C3=O)[C@@H]2CCC(=O)[C@@]2(C)C[C@H]1OC(C)=O [wortmannin, reference compound] | – | successfully rescued
